Data from patent publication US9512107B2, “Therapeutically active compositions and their methods of use” (Agios Pharmaceuticals, Inc., priority 2012, dated 2016).
The structures given here were assigned with low confidence; some may be wrong.

Chains of the proteins cited; added tags and fusions are not shown. Residues count along the entry.
UniProt P48735, 40-452 R140Q limits assumed: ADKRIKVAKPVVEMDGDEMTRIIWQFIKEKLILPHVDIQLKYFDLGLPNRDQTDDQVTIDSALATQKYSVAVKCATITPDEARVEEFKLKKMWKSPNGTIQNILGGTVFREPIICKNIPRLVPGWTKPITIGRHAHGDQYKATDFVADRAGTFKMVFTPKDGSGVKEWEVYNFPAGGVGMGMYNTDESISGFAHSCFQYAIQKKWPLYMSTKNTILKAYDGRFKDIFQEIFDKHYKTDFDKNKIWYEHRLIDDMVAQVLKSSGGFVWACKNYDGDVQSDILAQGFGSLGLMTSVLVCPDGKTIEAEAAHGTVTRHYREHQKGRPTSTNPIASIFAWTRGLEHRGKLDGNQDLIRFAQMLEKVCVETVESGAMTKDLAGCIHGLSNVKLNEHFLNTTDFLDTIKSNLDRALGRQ
UniProt P48735, 40-452 R172K limits assumed: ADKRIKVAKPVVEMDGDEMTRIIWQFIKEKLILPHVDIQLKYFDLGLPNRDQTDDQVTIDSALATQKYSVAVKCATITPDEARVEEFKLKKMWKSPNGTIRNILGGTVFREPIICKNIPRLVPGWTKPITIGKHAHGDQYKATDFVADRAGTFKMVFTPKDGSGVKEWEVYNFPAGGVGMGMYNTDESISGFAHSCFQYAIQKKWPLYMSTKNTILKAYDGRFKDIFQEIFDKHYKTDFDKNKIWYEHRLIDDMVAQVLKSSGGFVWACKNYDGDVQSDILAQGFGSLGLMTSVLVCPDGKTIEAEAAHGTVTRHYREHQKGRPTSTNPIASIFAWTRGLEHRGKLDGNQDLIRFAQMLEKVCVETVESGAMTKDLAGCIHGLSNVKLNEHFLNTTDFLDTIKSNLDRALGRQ

How the values were obtained:
IDH2 R172K = IDH2 R172K (Homo sapiens, UniProt P48735, R172K); experiment: IDH2 R172K enzymatic assay (NADPH cofactor depletion, diaphorase/resazurin readout); conditions: read-out: Enz R172K
IDH2 R140Q = IDH2 R140Q (Homo sapiens, UniProt P48735, R140Q); experiment: IDH2 R140Q enzymatic assay (cofactor depletion, similar format); conditions: read-out: Enz R140Q
[1] = test system: U87MG pLVX-IDH2 R140Q-neo cells; experiment: U87MG pLVX-IDH2 R140Q-neo cell based assay, 2-HG in media by LC-MS at 48 hours; conditions: read-out: Cell R140Q

| SMILES | IC50 (IDH2 R172K) [nM] | IC50 (IDH2 R140Q) [nM] | IC50 [1] [nM] |
| --- | --- | --- | --- |
| CC(C)(C)OC(=O)N1CCC(Nc2nc(Nc3ccnc(C(F)(F)F)c3)nc(-c3cccc(Cl)n3)n2)CC1 | 1000 to 10000 | 100 to 1000 | 100 to 1000 |
| COCC(C)Nc1nc(Nc2ccnc(C(F)(F)F)c2)nc(-c2cccc(C(F)(F)F)n2)n1 (stereo not drawn) | < 100 | 100 to 1000 | < 100 |
| CC(C)Nc1nc(Nc2ccnc(C(C)(C)O)c2)nc(-c2ccccc2)n1 | – | 100 to 1000 | < 100 |
| CC(C)Nc1nc(Nc2ccnc(C#N)c2)nc(-c2nccc(C(F)(F)F)n2)n1 | < 100 | 100 to 1000 | < 100 |
| CC(C)Nc1nc(Nc2ccccc2)nc(-c2cccc(O)n2)n1 | – | 100 to 1000 | – |
| CC(C)(C)CNc1nc(Nc2cncc(C#N)c2)nc(-c2nccc(C(F)(F)F)n2)n1 | 100 to 1000 | 100 to 1000 | < 100 |
| CC(C)(O)CNc1nc(Nc2cncc(C#N)c2)nc(-c2cccc(C(F)(F)F)n2)n1 | – | 1000 to 10000 | 100 to 1000 |
| CC(C)Nc1nc(Nc2ccccc2O)nc(-c2ccccc2)n1 | – | < 100 | 100 to 1000 |
| CC(C)CNc1nc(Nc2ccnc(C#N)c2)nc(-c2cccc(C(F)(F)F)n2)n1 | – | 100 to 1000 | < 100 |
